PubChem BioAssay AID1259405, NCATS, 2018

Test: 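Knock-downs that lift recombinant protein yield in hamster ovary cells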 (primary screen)
System: Chinese hamster CHO-K1 ovary cells with stable secreted eGFP expression
Reagents: single siRNA against mouse genes, 0.8 pmol siRNA per well (2 µl of 400 nM stock)
Time to read-out: 3 days
Measurement: 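Percent of the per-plate non-targeting control median for intracellular GFP per well by laser scanning cytometry and for cell viability by ATP luminescence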
Reading the numbers: GFP, % of control: higher = more GFP per well, higher productivity; viability (ATP), % of control: higher = more viable cells (more ATP)
Active means: 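a knock-down is called active if GFP reaches 120% or more of non-targeting control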
In all, the deposit lists about 50,000 reagents; below is an unselected part. About 4,000 of all reagents (8%) were called active. 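Mouse siRNA library applied to hamster cells; one well for each siRNA.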 No sequences are given here.

With Ppan (GeneID 235036) [SID363581803], how do the results read?
GFP, % of control: 77.5; viability (ATP), % of control: 49.1; activity call: inactive

With Ppan (GeneID 235036) [SID363589297], what does the deposit list?
GFP, % of control: 96.3; viability (ATP), % of control: 81.6; activity call: inactive

For Medag (GeneID 70717) [SID363552155], how do the results read?
GFP, % of control: 67.6; viability (ATP), % of control: 73; activity call: inactive

What did the screen give for Medag (GeneID 70717) [SID363585291]?
GFP, % of control: 47.8; viability (ATP), % of control: 75.3; activity call: inactive

What did the screen give for Medag (GeneID 70717) [SID363585642]?
GFP, % of control: 97.4; viability (ATP), % of control: 103; activity call: inactive

What is on record for Phka2 (GeneID 110094) [SID363573303]?
GFP, % of control: 63.7; viability (ATP), % of control: 68.7; activity call: inactive

Which result is listed for Phka2 (GeneID 110094) [SID363588542]?
GFP, % of control: 107; viability (ATP), % of control: 95.2; activity call: inactive

What is on record for Oit3 (GeneID 18302) [SID363562155]?
GFP, % of control: 76.5; viability (ATP), % of control: 79.6; activity call: inactive

Which result is listed for Oit3 (GeneID 18302) [SID363567293]?
GFP, % of control: 90.9; viability (ATP), % of control: 95; activity call: inactive

What did the screen give for Oit3 (GeneID 18302) [SID363584650]?
GFP, % of control: 61.1; viability (ATP), % of control: 80.6; activity call: inactive

2 entries from above in another layout:
gene | PubChem SID | GFP, % of control | viability (ATP), % of control | activity call
Medag (GeneID 70717) | SID363585291 | 47.8 | 75.3 | inactive
Medag (GeneID 70717) | SID363585642 | 97.4 | 103 | inactive

Continued:
For Zwint (GeneID 52696) [SID363556798], how do the results read?
GFP, % of control: 73.5; viability (ATP), % of control: 45.3; activity call: inactive

For Zwint (GeneID 52696) [SID363563702], what does the deposit list?
GFP, % of control: 89.3; viability (ATP), % of control: 71.3; activity call: inactive

For Zwint (GeneID 52696) [SID363587248], what was measured?
GFP, % of control: 88.2; viability (ATP), % of control: 72.8; activity call: inactive

What did the screen give for Ccdc9 (GeneID 243846) [SID363550027]?
GFP, % of control: 50.9; viability (ATP), % of control: 59.6; activity call: inactive

How did the screen score Ccdc9 (GeneID 243846) [SID363564536]?
GFP, % of control: 96.3; viability (ATP), % of control: 72.5; activity call: inactive

What did the screen give for Ccdc9 (GeneID 243846) [SID363588081]?
GFP, % of control: 74.1; viability (ATP), % of control: 111; activity call: inactive
